PubChem BioAssay AID504764, Drosophila RNAi Screening Center | 2011

Screen: 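Knock-downs that raise or lower a Notch target reporter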 (primary screen)
System: Drosophila Kc167 cells
Knock-down reagent: long dsRNA against Drosophila genes
Time to read-out: about 5 days (4 days dsRNA, then 24 h after transfection)
Treatment: transfection of constitutively active membrane-tethered Notch lacking the extracellular domain, read 24 h later
Detection: 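Light from a Notch-responsive E(spl)m3 luciferase reporter under active Notch, with control-promoter and no-Notch reporter wells to normalise; raw counts from paired wells a and b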
Scale: induced reporter light, run 1, well a and induced reporter light, run 1, well b: higher = more light from the Notch target reporter with active Notch; control promoter light, run 1, well a and control promoter light, run 1, well b: higher = more light from the viral control promoter (cell number, transfection, viability); uninduced reporter light, run 1, well a: higher = more light from the Notch target reporter without active Notch
Call rule: 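Wells with low control signal or poorly matching duplicates excluded; duplicates averaged; per source plate, z beyond ±2 for induced/control log2 ratio or beyond ±1.8 for induced/uninduced marks a hit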
Calls: active = modifier hit (raised or lowered Notch signal); inactive = not a hit
The deposit covers about 22,000 reagents; below is a random part of those that have a named target and a result. Over the whole deposit, 403 (1.9%) were called active. 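Unnormalised raw counts per well; ratio z-scores behind the hit calls and whether each hit raises or lowers signal are not deposited.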 The numbers tell different reagents against one gene apart. Not stated in the record: the amount of reagent.

| gene | dsRNA no. | induced reporter light, run 1, well a | induced reporter light, run 1, well b | control promoter light, run 1, well a | control promoter light, run 1, well b | uninduced reporter light, run 1, well a | activity call |
| --- | --- | --- | --- | --- | --- | --- | --- |
| CG2816 | 1 | 1.45e5 | 1.37e5 | 1.49e5 | 1.42e5 | 9850 | inactive |
| Gart | 1 | 1.16e5 | 67775 | 87855 | 1.03e5 | 5600 | inactive |
| Syn2 | 1 | 1.63e5 | 1.20e5 | 1.43e5 | 1.59e5 | 13000 | inactive |
| E(Pc) | 1 | 1.35e5 | 1.16e5 | 2.52e5 | 3.13e5 | 23195 | inactive |
| E(Pc) | 2 | 63080 | 47030 | 97235 | 93870 | 6210 | active |
| CG6171 | 1 | 1.60e5 | 1.66e5 | 1.24e5 | 1.31e5 | 11255 | inactive |
| CG30471 | 1 | 1.05e5 | 1.09e5 | 2.02e5 | 2.40e5 | 9975 | inactive |
| Rpt3R | 1 | 50955 | 52510 | 61775 | 50920 | 3500 | inactive |
| CG12782 | 1 | 2.75e5 | 2.11e5 | 1.92e5 | 2.33e5 | 16780 | inactive |
| CG18262 | 1 | 1.49e5 | 1.49e5 | 3.59e5 | 3.79e5 | 12965 | active |
| CG30284 | 1 | – | – | – | – | – | inactive |
| CG14400 | 1 | 93340 | 64885 | 54110 | 71010 | 4205 | inactive |
| CG7992 | 1 | 87750 | 1.03e5 | 1.21e5 | 1.16e5 | 11700 | inactive |
| CG14185 | 1 | 1.03e5 | 1.03e5 | 1.09e5 | 83435 | 8970 | inactive |
| Tssk | 1 | 2.51e5 | 2.22e5 | 2.56e5 | 2.16e5 | 15490 | inactive |
| CG14421 | 1 | 1.04e5 | 1.07e5 | 1.89e5 | 2.04e5 | 9650 | inactive |
| B9d1 | 1 | 2.22e5 | 2.56e5 | 1.94e5 | 2.14e5 | 17750 | inactive |
| CG14805 | 1 | 1.04e5 | 1.09e5 | 1.79e5 | 1.67e5 | 7335 | inactive |
| Kr | 1 | 2.65e5 | 2.75e5 | 2.02e5 | 2.56e5 | 20085 | inactive |
| CG30103 | 1 | 1.54e5 | 1.06e5 | 1.56e5 | 1.67e5 | 9670 | inactive |

Records listed so far whose gene name starts with E or e (2):
| gene | dsRNA no. | induced reporter light, run 1, well a | induced reporter light, run 1, well b | control promoter light, run 1, well a | control promoter light, run 1, well b | uninduced reporter light, run 1, well a | activity call |
| --- | --- | --- | --- | --- | --- | --- | --- |
| E(Pc) | 1 | 1.35e5 | 1.16e5 | 2.52e5 | 3.13e5 | 23195 | inactive |
| E(Pc) | 2 | 63080 | 47030 | 97235 | 93870 | 6210 | active |
